Measured values published in doi:10.1101/2023.10.23.563394.
The exact form of at least one protein or probe is not confirmed. Negatives hold for the conditions tested. For part of these data: Weaker means in comparison with the reference protein, sequence or condition of that experiment.

Assays:
[1] = system: CHT7_CXC (Chlamydomonas reinhardtii); test: EMSA
[2] = system: CHT7_CXC (Chlamydomonas reinhardtii); test: fluorescence polarization
[3] = system: CXC_N (Chlamydomonas reinhardtii); test: EMSA
[4] = system: CXC_C (Chlamydomonas reinhardtii); test: EMSA
[5] = system: CXC_N (Chlamydomonas reinhardtii); test: fluorescence polarization

Sequence: GATCAATAGATGCGCAGATCATTTACATT (double strand) [29mer without TTYRAA site]
- binding result [1]: no binding

Sequence: GGTGTTTGAATTT (double strand) [13mer TTTGAA (EMSA)]
- binding result [1]: binds more weakly

Sequence: GGTGTTTGAATTT (double strand) [13mer TTTGAA, 6-FAM]
- binding result [2]: no binding

Sequence: TATCTGGTGCCTGAATTTCTGGATCTG (double strand) [27mer CCTGAA (EMSA)]
- binding result [1]: binds
- binding result [3]: binds more weakly
- binding result [4]: no binding

Sequence: TATCTGGTGCCTGCCTTTCTGGATCTG (double strand) [27mer CCTGCC (EMSA)]
- binding result [1]: no binding

Sequence: TATCTGGTGCCTGCCTTTCTGGATCTG (double strand) [27mer CCTGCC, 6-FAM]
- binding result [2]: no binding

Sequence: TATCTGGTGTTTGAATTTCTGGATCTG (double strand) [27mer TTTGAA (EMSA)]
- binding result [1]: binds
- binding result [3]: binds more weakly
- binding result [4]: no binding

Sequence: TATCTGGTGTTTGCCTTTCTGGATCTG (double strand) [27mer TTTGCC (EMSA)]
- binding result [1]: binds more weakly
- binding result [3]: no binding
- binding result [4]: no binding

Sequence: TATCTGGTGTTTGCCTTTCTGGATCTG (double strand) [27mer TTTGCC, 6-FAM]
- binding result [2]: no binding
- binding result [5]: no binding

Sequence: TGGACTGGATTTGAACGATTGAAAGCT (double strand) [LHCA6 DNA]
- binding result [1]: binds

Sequence: TTCTTTTCATTTGAATGGTTTTCCGAC (double strand) [LHCB5 DNA]
- binding result [1]: binds
